Patent US20150299764A1, “IMMOBILISED CYCLIN-DEPENDENT KINASE 4 FUSION PROTEINS AND USES THEREOF” (UNIVERSITE LIBRE DE BRUXELLES, priority 2012, published 2015)
These are yes or no findings as the source states them, for the method shown. For part of these data: In cells and extracts the contact can be indirect. Some binding calls cover weakened binding; strength is not graded here. Each block holds one substance with its values, some of them ahead of it.

Protein sequences, listed by entry. Tags and fused reporters are not part of them. Residues count along the entry.
UniProt P11802, residues 2-303: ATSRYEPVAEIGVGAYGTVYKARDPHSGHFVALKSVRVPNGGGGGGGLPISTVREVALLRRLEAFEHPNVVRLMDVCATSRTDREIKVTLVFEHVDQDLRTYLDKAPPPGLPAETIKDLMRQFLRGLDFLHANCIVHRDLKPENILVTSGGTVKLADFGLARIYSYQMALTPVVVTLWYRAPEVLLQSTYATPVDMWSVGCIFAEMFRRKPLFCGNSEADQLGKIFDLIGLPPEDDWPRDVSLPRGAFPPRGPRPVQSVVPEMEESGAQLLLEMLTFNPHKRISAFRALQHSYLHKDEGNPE
UniProt P02701, residues 25-152: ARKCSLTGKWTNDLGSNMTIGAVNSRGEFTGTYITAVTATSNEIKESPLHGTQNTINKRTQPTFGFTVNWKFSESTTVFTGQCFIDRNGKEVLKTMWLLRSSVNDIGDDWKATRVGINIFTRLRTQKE
UniProt P30281: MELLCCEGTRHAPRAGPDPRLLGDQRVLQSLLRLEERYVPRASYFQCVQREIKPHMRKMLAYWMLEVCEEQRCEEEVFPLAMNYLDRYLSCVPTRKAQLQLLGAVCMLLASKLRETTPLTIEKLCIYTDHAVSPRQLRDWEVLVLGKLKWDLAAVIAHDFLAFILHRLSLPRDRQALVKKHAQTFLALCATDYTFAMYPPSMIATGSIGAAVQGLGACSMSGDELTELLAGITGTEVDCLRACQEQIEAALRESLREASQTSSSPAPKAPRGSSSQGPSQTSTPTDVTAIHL
UniProt P24385: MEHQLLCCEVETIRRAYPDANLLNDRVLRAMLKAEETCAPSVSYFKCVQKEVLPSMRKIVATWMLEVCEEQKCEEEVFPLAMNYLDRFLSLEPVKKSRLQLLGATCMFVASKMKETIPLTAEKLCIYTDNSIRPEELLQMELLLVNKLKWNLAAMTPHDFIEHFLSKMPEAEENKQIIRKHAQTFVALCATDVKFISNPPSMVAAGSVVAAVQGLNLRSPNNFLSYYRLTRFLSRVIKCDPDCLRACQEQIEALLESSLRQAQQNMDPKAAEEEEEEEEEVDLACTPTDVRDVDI

What was measured:
[1] = biological target: biotinylated Avi-tagged luciferase/EGFP fusion (pWFAvi_IBc_luc) [luciferase: P08659]; experiment: dilution series of HEK293T lysate on Pierce neutravidin-coated plates, bound luciferase activity
[2] = biological target: endogenous CDK4 of MCF7 cells (human) (UniProt P11802); experiment: co-immunoprecipitation from MCF7 lysate with anti-cyclin D3 (DCS-28), 2D gel immunoblot with anti-CDK4 H-22
[3] = biological target: internally Avi-tagged biotinylable luciferase/Avi/GFP fusion (ATGHis_Luc, from pWNATGHis_Luc) [luciferase: P08659]; experiment: blot of HEK293T lysates probed with labelled streptavidin (Odyssey)
[4] = biological target: internally Avi-tagged biotinylable luciferase/Avi fusion without GFP (ATHis_Luc, from pWNATHis_Luc) [luciferase: P08659]; experiment: as above
[5] = biological target: biotinylated Avi-tagged cyclin D1 (from pWFAvi_IBc_D1 or pWFAvi_IBp_D1); experiment: blot of HEK293T lysates probed with streptavidin-HRP
[6] = biological target: endogenous CDK4 of MCF7 cells (human) (UniProt P11802); experiment: co-immunoprecipitation from MCF7 lysate with anti-cyclin D1 (DCS-11), 2D gel immunoblot with anti-CDK4 H-22

binding [1]: binds
Substance: neutravidin (from UniProt P02701 25-152)

binding [2]: binds
Substance: endogenous cyclin D3 of MCF7 cells (from UniProt P30281 1-292)

binding [3]: binds
binding [4]: binds
binding [5]: binds
Substance: streptavidin (from UniProt P22629 37-163)

binding [6]: binds
Substance: endogenous cyclin D1 of MCF7 cells (from UniProt P24385 1-295)
